Assay results published in patent publication US20040006018A1.
No constants are given. Whether binding was seen depends on the method and setting. Some binding calls cover weakened binding; strength is not graded here.

Molecular target: T1, OSM specific receptor (oncostatin M receptor) on human WI-26 VA4 cells (human) (UniProt Q99650)
T1 sequence (looked up): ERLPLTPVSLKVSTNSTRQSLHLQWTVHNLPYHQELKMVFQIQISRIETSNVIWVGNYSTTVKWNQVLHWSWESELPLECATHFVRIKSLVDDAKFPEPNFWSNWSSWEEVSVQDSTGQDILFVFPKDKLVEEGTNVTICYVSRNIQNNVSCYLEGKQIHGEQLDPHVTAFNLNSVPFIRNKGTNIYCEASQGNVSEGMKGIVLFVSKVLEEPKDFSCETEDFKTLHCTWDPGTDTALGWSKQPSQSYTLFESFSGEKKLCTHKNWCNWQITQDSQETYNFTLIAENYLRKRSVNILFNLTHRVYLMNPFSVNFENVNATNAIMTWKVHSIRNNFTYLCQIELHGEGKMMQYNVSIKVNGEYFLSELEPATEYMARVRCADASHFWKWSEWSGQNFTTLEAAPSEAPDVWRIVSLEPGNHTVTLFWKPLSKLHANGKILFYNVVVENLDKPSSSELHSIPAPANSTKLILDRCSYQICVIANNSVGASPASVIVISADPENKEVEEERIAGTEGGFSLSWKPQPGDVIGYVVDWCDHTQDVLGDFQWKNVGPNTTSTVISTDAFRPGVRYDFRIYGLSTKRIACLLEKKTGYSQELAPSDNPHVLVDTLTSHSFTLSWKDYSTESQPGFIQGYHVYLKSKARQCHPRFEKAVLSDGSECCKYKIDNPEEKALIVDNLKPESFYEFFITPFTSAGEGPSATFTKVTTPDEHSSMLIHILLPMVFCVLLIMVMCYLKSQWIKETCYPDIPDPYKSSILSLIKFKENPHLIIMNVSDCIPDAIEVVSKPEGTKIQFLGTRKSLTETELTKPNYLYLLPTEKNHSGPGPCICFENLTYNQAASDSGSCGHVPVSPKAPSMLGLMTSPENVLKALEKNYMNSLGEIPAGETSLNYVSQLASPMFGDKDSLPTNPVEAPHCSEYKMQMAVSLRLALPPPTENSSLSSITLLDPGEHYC
Test: 125I-human OSM binding to WI-26 VA4 cells

B1: Human OSM (oncostatin M) (ligand, UniProt P13725 26-221, looked up)
chain: AAIGSCSKEYRVLLGQLQKQTDLMQDTSRLLDPYIRIQGLDVPKLREHCRERPGAFPSEETLRGLGRRGFLQTLNATLGCVLHRLADLEQRLPKAQDLERSGLNIEDLEKLQMARPNILGLRNNIYCMAQLLDNSDTAEPTKAGRGASQPPTPTPASDAFQRKLEGCRFLHGYHRFMHSVGRVFSKWGESPNRSRR
modifications: 125I-iodinated (labeled ligand)
binding: binds
